In publication doi:10.1101/2022.06.14.496170:

Molecular target: T1, PICLN (Arabidopsis thaliana) (Arabidopsis thaliana) (UniProt Q9LVA7)
T1 sequence: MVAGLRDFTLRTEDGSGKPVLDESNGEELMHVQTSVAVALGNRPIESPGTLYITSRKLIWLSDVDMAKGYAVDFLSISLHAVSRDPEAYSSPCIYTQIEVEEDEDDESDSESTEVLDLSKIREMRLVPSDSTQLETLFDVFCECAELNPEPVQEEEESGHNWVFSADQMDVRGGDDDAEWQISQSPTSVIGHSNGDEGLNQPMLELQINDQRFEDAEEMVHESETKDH
Assay: two-hybrid

Row | Substance | binding
1 | SmE1/PCP (Arabidopsis thaliana) | binds weakly
2 | SmGb (Arabidopsis thaliana) | no binding

No constants are given. Whether binding was seen depends on the method and setting. Binding calls can cover weak binding; strength is not graded here.
